PubChem BioAssay AID720505 | Drosophila RNAi Screening Center, 2013
Screen: 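Genes needed for store-operated calcium entry in fly cells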 (primary screen). System: Drosophila S2R+ cells. Reagent: long dsRNA against Drosophila genes. Challenge: thapsigargin (2 µM) in calcium-free buffer to empty internal stores, then 2 mM calcium added back. Measurement: 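Fluo-4 signal in 384-well plates read on a FLIPR after thapsigargin (2 µM, calcium-free) store depletion and 2 mM calcium add-back; unnormalised mean endpoint per well; screen run twice, selected wells retested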. Scale: calcium signal and retest calcium signal: higher = more calcium entry after store depletion. Active means: 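About 1500 genes called as lowering calcium entry, by varying amounts, judged against per-plate control wells with STIM1 as positive and Rho1 as negative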. Meaning of the calls: active = called as lowering calcium entry; inactive = not called.
The deposit covers about 20,000 reagents; below is an unselected part of those with a known target gene and a result. Over the whole deposit, about 2,100 (10%) are marked active. 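Raw plate signals without normalisation; calls rest on control-based scores that were not deposited; replicate 2 separates called from uncalled poorly.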 A number with no mark means an inactive call. The numbers tell different reagents against one gene apart. Not given: the amount of reagent, the time to read-out.

| target gene | reagent | calcium signal, replicate 1 | calcium signal, replicate 2 | retest calcium signal, replicate 1 | retest calcium signal, replicate 2 |
| --- | --- | --- | --- | --- | --- |
| CG14440 | 1 | 188 | 128 | – | – |
| CG14440 | 2 | 181 | 170 | – | – |
| CG14440 | 3 | 88.8 | 156 | – | – |
| pr | 1 | 98 | 107 | – | – |
| CG5762 | 1 | 204 | 225 | – | – |
| CG15539 | 1 | 140 | 139 | – | – |
| Ctr9 | 1 | 124 | 149 | – | – |
| CG9119 | 1 | 140 | 105 | – | – |
| CG16775 | 1 | 121 | 155 | – | – |
| CG10205 | 1 | 87.3 | 190 | – | – |
| Gk1 | 1 | 134 | 94.9 | – | – |
| Gk1 | 2 | 100 | 127 | – | – |
| brat | 1 | 103 | 146 | – | – |
| CG31220 | 1 | 83.8 | 176 | – | – |
| ccb | 1 | 233 | 104 | – | – |
| CG17267 | 1 | 212 | 140 | – | – |
| Lmpt | 1 | 11344 | 153 | – | – |
| Lmpt | 2 | 79.4 | 229 | – | – |
| Lmpt | 3 | 106 | 106 | – | – |
| Lmpt | 4 | 64.7 (active) | 223 | – | – |
| Lmpt | 5 | 97.7 | 139 | – | – |
| Lmpt | 6 | 152 | 122 | – | – |
| Lmpt | 7 | 109 | 161 | – | – |
| CG9777 | 1 | 98.7 | 127 | – | – |
| lute | 1 | 133 | 144 | – | – |
| lute | 2 | 176 | 218 | – | – |
| Gen | 1 | 67.2 (active) | 94 | – | – |
| CG7382 | 1 | 146 | 166 | – | – |
| ssh | 1 | 152 | 129 | – | – |
| CG10132 | 1 | 126 | 105 | – | – |
| CG10405 | 1 | 98.1 | 144 | – | – |
| 4E-T | 1 | 121 | 157 | – | – |
| 4E-T | 2 | 96.8 | 128 | – | – |
| CG32645 | 1 | 124 | 88.7 | – | – |
| CG32645 | 2 | 71.2 (active) | 123 | – | – |
| CG10853 | 1 | 87.2 | 99.7 | – | – |
| CG34159 | 1 | 156 | 139 | – | – |
| CG34159 | 2 | 71.7 | 99.7 | – | – |
| CG8245 | 1 | 193 | 203 | 82.7 | 101 |
| CG14629 | 1 | 91.3 | 112 | – | – |
| CG11617 | 1 | 186 | 125 | – | – |
| CG11617 | 2 | 76.7 (active) | 169 | – | – |
| CG14354 | 1 | 155 | 149 | – | – |
| witty | 1 | 170 | 170 | – | – |
| witty | 2 | 186 | 104 | – | – |
| CG4025 | 1 | 122 | 123 | – | – |

The list goes on; the last 11 above are carried over.
| target gene | reagent | calcium signal, replicate 1 | calcium signal, replicate 2 | retest calcium signal, replicate 1 | retest calcium signal, replicate 2 |
| --- | --- | --- | --- | --- | --- |
| CG10853 | 1 | 87.2 | 99.7 | – | – |
| CG34159 | 1 | 156 | 139 | – | – |
| CG34159 | 2 | 71.7 | 99.7 | – | – |
| CG8245 | 1 | 193 | 203 | 82.7 | 101 |
| CG14629 | 1 | 91.3 | 112 | – | – |
| CG11617 | 1 | 186 | 125 | – | – |
| CG11617 | 2 | 76.7 (active) | 169 | – | – |
| CG14354 | 1 | 155 | 149 | – | – |
| witty | 1 | 170 | 170 | – | – |
| witty | 2 | 186 | 104 | – | – |
| CG4025 | 1 | 122 | 123 | – | – |
| CG3702 | 1 | 135 | 255 | – | – |
| ND-ASHI | 1 | 187 | 121 | – | – |
| CG8520 | 1 | 176 | 122 | – | – |
| CG12728 | 1 | 101 | 122 | – | – |
| CHKov2 | 1 | 72.2 (active) | 72 | – | – |
| alpha-PheRS | 1 | 121 (active) | 59.6 | – | – |
| ppk6 | 1 | 146 | 128 | – | – |
| Adat1 | 1 | 73.7 (active) | 156 | – | – |
| Syx1A | 1 | 194 | 166 | – | – |
| Syx1A | 2 | 165 | 66.6 | – | – |
| ND-20 | 1 | 109 | 111 | – | – |
| CG8910 | 1 | 208 | 144 | – | – |
| CG11307 | 1 | 105 | 89 | 138 | 91.9 |
| CG7656 | 1 | 126 | 69.3 | – | – |
| nonA | 1 | 96.1 | 105 | – | – |
| Msp300 | 1 | 85.7 | 157 | – | – |
| Msp300 | 2 | 74.1 | 148 | – | – |
| Msp300 | 3 | 87.7 | 164 | – | – |
| Msp300 | 4 | 89.3 | 142 | – | – |
| Msp300 | 5 | 137 | 91.5 | – | – |
| Msp300 | 6 | 64.5 (active) | 208 | – | – |
| Msp300 | 7 | 182 | 83.1 | – | – |
| pAbp | 1 | 126 | 91.3 | – | – |
| lilli | 1 | 100 | 173 | 67.9 | 91 |
| CG9312 | 1 | 105 | 120 | – | – |
| Cyp308a1 | 1 | 45.8 (active) | 80.9 | – | – |
| mRpS22 | 1 | 87.5 | 106 | – | – |
| His-Psi:CR31754 | 1 | 80 | 147 | – | – |
| CG31109 | 1 | 178 | 121 | – | – |
| Mal-A1 | 1 | 112 | 123 | – | – |
| CG9928 | 1 | 123 | 88 | – | – |
| spn-E | 1 | 115 | 149 | – | – |
| CG14689 | 1 | 121 | 101 | – | – |
| CG3222 | 1 | 94.9 | 105 | – | – |
| CG17570 | 1 | 103 | 4218 | – | – |
| CG17570 | 2 | 154 | 94 | – | – |
| Tmem214 | 1 | 178 | 178 | – | – |
| Tmem214 | 2 | 158 | 141 | – | – |
| CG8757 | 1 | 141 | 107 | – | – |
| COX5B | 1 | 111 | 82.4 | – | – |
| CG12133 | 1 | 88.5 | 115 | – | – |
| CG33771 | 1 | 97.2 | 98.8 | – | – |
| Npc2d | 1 | 109 | 115 | – | – |
| kra | 1 | 85.5 | 140 | – | – |
| lva | 1 | 69.4 | 132 | – | – |
| Cyp6t3 | 1 | 108 | 138 | – | – |
| rg | 1 | 97.8 | 86.2 | – | – |
| rg | 2 | 212 | 87.5 | – | – |
| PH4alphaNE3 | 1 | 74 | 128 | – | – |
| CG17349 | 1 | 183 | 93 | – | – |
| Nopp140 | 1 | 103 | 126 | – | – |
| unk | 1 | 201 | 291 | – | – |
| Hacl | 1 | 133 | 166 | – | – |
| CHKov1 | 1 | 161 | 88 | – | – |
| CHKov1 | 2 | 175 | 118 | – | – |
| CHKov1 | 3 | 280 | 125 | – | – |
| CHKov1 | 4 | 99.6 | 8595 | – | – |
| CG15201 | 1 | 54.7 (active) | 108 | – | – |
| Arp53D | 1 | 147 | 165 | – | – |
| CG14196 | 1 | 140 | 80.6 | – | – |
